This assay addresses T1, human JAK3 (Homo sapiens, UniProt P52333).
T1 sequence (P52333 1-1124): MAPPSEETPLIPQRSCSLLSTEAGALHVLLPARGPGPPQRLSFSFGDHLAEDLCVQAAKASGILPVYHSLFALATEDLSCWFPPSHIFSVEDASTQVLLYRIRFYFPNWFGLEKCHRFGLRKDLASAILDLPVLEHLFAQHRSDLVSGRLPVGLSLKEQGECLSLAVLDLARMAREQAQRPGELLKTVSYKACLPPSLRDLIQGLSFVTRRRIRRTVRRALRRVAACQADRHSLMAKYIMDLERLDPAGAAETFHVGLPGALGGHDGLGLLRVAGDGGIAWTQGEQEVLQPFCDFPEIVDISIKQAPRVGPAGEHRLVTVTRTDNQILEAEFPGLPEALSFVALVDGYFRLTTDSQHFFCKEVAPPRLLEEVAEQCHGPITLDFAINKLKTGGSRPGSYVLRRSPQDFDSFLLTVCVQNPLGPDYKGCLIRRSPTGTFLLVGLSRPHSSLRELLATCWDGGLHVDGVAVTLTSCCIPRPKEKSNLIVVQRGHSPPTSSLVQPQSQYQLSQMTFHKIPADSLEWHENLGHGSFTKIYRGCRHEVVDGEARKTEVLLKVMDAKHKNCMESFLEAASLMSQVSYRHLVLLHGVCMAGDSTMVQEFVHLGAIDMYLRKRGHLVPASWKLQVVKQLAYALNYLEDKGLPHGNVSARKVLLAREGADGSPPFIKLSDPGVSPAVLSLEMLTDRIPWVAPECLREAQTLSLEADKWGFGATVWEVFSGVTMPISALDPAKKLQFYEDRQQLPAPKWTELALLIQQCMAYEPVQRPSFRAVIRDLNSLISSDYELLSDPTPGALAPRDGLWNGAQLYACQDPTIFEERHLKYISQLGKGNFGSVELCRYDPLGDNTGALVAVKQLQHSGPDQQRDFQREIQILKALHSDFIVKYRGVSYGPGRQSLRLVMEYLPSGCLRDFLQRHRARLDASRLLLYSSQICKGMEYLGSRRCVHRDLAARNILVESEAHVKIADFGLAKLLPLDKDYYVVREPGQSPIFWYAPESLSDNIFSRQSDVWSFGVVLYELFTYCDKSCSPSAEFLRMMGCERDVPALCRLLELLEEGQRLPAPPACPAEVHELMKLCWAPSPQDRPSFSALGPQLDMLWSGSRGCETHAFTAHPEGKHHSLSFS
Description: JAK3 immune complex kinase assay (JAK3 immunoprecipitated from KL2 EBV-transformed B cell line). Conditions: KL2 cell-derived human JAK3. Type of assay: biochemical. The method, then: In JAK3 immune complex kinase assays (17, 22), KL-2 EBV-transformed human lymphoblastoid B cells (native JAK3 kinase assays) or insect ovary cells (recombinant JAK3 kinase assays) were lysed with NP-40 lysis buffer (50 mM Tris, pH 8, 150 mM NaCl, 5 mM EDTA, 1% NP-40, 100 μM sodium orthovanadate, 100 μM sodium molybdate, 8 μg/ml aprotinin, 5 μg/ml leupeptin, and 500 μM PMSF) and centrifuged 10 min at 13000× g to remove insoluble material. Samples were immunoprecipitated with antisera prepared against JAK3. The antisera were diluted and immune complexes collected by incubation with 15 μl protein A Sepharose. After 4 washes with NP-40 lysis buffer, the protein A Sepharose beads were washed once in kinase buffer (20 mM MOPS, pH7, 10 mM MgCl2) and resuspended in the same buffer. Reactions were initiated by the addition of 25 μCi [γ^32P] ATP (5000 Ci/mMole) and unlabeled ATP to a final concentration of 5 μM. Reactions were terminated by boiling for 4 min in SDS sample buffer. Samples were run on 9.5% SDS polyacrylamide gels and labeled proteins were detected by autoradiography. […] For each drug concentration, a kinase activity index (KA) was determined by comparing the kinase activity in phosphorimager units (PIU) to that of the baseline sample. […]

As usually defined, the IC50 is the concentration that inhibits the measured activity by half. Low readings indicate greater potency in that assay, high ones weaker potency in that assay. For `COc1cc2ncnc(Nc3ccc(O)c(Br)c3)c2cc1OC` [WHI-P154, 4-(3′bromo4′-hydroxyl-phenyl)-amino-6,7-dimethoxyquinazoline], inhibition was half-maximal at 27.9 µM (IC50).

(Values after patent publication US6469013B2, “Therapeutic compounds” (Parker Hughes Institute, priority 1998, dated 2002).)
